Article doi:10.1101/2025.06.10.657920
Results are given in words; binding and its absence hold for the method and conditions named. In cells and extracts the contact can be indirect. Some entries that bind do so weakly or less than the wild type.

Protein sequences, listed by entry. Tags and fused reporters are not part of them.
UniProt P12004: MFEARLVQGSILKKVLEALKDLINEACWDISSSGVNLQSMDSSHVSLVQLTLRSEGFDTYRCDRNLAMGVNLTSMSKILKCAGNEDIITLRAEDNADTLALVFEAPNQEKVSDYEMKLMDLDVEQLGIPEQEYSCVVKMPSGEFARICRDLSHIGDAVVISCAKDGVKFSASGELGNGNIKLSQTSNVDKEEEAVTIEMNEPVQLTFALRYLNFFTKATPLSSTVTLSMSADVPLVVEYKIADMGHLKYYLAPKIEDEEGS
UniProt Q7Z2Z1: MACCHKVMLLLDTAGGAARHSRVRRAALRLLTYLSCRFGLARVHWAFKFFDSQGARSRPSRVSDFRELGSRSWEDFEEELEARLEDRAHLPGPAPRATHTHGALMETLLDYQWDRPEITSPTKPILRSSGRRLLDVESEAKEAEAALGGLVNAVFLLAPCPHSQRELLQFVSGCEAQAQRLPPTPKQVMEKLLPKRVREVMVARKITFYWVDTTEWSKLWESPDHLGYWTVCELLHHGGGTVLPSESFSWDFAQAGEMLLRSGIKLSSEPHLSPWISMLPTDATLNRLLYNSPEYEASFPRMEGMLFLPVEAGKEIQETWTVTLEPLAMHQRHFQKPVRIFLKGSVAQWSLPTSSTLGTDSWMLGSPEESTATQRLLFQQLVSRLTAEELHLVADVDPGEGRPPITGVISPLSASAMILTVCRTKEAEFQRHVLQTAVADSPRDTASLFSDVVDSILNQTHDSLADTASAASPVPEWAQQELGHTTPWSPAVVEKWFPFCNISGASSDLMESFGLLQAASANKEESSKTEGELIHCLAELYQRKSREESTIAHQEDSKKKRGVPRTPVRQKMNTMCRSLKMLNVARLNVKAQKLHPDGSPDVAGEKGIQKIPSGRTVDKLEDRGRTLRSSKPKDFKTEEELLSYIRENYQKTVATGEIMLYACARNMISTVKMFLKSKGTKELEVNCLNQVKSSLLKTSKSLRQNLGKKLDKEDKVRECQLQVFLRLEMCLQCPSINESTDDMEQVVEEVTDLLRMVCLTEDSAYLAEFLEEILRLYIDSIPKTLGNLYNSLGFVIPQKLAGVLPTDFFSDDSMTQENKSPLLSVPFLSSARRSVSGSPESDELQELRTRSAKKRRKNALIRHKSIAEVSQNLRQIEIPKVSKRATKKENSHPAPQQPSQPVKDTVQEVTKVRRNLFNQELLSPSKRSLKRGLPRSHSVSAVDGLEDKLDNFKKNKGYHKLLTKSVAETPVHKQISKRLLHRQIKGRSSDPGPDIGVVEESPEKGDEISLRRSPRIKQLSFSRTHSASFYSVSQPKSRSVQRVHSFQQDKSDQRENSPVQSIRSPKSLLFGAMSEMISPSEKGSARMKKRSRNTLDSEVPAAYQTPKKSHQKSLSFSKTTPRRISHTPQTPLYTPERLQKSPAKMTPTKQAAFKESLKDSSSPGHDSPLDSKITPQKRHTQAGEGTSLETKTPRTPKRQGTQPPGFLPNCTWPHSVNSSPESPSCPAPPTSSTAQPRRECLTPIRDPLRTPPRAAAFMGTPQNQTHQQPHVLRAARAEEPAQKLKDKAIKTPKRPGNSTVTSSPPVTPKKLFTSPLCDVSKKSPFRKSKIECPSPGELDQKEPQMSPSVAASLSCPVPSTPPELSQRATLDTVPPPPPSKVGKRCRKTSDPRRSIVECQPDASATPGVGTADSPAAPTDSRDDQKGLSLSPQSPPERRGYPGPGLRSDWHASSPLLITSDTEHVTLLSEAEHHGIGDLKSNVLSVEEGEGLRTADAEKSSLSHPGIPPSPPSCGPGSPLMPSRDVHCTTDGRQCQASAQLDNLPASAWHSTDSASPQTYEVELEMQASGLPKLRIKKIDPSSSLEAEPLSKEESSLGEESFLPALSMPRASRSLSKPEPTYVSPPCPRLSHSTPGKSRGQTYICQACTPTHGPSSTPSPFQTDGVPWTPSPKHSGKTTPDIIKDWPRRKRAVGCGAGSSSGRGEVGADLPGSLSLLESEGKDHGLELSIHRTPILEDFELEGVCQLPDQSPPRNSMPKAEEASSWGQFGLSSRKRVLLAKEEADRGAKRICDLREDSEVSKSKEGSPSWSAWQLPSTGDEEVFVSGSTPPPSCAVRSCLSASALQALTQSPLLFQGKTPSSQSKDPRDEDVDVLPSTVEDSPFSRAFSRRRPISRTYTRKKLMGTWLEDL

Target: PCNA (human (endogenous in HCT116)) (UniProt P12004)
Assay: proximity ligation; in situ in HCT116 TRESLIN-mClover cells, pre-permeabilised and fixed as for immunofluorescence; anti-GFP (1:500) plus anti-PCNA (1:500), NaveniFlex MR100 PLA kit; control with anti-GFP alone; cells untreated or treated with the neddylation inhibitor MLN4924 (NAEi)

- binding: binds
Substance: TRESLIN-mClover (endogenously tagged TRESLIN) (from UniProt Q7Z2Z1 1-1910)
